Experiment [1] has as its target T1, FRET-based intramolecular interaction probe of USP8 (FRIP8) (human) (UniProt P40818).
T1 sequence: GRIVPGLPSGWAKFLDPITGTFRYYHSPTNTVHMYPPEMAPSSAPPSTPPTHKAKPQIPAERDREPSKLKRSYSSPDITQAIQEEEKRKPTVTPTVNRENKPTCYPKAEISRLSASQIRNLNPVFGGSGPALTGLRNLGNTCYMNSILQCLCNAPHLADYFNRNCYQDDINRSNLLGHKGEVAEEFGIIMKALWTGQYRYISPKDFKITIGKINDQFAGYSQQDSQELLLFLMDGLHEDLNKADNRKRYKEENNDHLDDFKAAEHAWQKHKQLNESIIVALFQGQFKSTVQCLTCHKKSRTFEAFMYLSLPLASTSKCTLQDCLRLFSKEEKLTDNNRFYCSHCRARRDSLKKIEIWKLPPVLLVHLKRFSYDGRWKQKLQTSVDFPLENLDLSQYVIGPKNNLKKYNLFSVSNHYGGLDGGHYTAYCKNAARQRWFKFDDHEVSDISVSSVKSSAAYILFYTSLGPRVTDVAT
Kind of experiment: co-IP; HEK293 lysates; anti-FLAG beads (FLAG-USP8) or anti-GFP antibody (FRIP8); washed five times with lysis buffer; immunoblotting for 14-3-3. On the technique in general: In western blotting, separated proteins are transferred to a membrane and probed.

Experiment [2] has as its target T1, FRET-based intramolecular interaction probe of USP8 (FRIP8) (human). Kind of experiment: co-IP; as a6, but the lysate was incubated with 100 μM R18 peptide at 4 °C for 30 min before immunoprecipitation.
The target of another experiment is GST-tagged 14-3-3. Put plainly: pull-down; total cell lysates adsorbed with GST-tagged 14-3-3; phosphorylation of the 14-3-3-binding motif of USP8 measured in the adsorbed fraction (Supplementary Fig. 5a).

No constants are given. Whether binding was seen depends on the method and setting. Binding seen in cells or lysates may run through a third protein. For part of these data: Binding calls can cover weak binding; strength is not graded here.

Turning to 14-3-3ε (expressed with FRIP8) (human), the binding entry is on record as “binds” in experiment [1] and “no binding (only with 100 μM R18)” in experiment [2].

B1: cellular USP8 (phosphorylated in the 14-3-3-binding motif) (enzyme, UniProt P40818 1-1118)
chain: MPAVASVPKELYLSSSLKDLNKKTEVKPEKISTKSYVHSALKIFKTAEECRLDRDEERAYVLYMKYVTVYNLIKKRPDFKQQQDYFHSILGPGNIKKAVEEAERLSESLKLRYEEAEVRKKLEEKDRQEEAQRLQQKRQETGREDGGTLAKGSLENVLDSKDKTQKSNGEKNEKCETKEKGAITAKELYTMMTDKNISLIIMDARRMQDYQDSCILHSLSVPEEAISPGVTASWIEAHLPDDSKDTWKKRGNVEYVVLLDWFSSAKDLQIGTTLRSLKDALFKWESKTVLRNEPLVLEGGYENWLLCYPQYTTNAKVTPPPRRQNEEVSISLDFTYPSLEESIPSKPAAQTPPASIEVDENIELISGQNERMGPLNISTPVEPVAASKSDVSPIIQPVPSIKNVPQIDRTKKPAVKLPEEHRIKSESTNHEQQSPQSGKVIPDRSTKPVVFSPTLMLTDEEKARIHAETALLMEKNKQEKELRERQQEEQKEKLRKEEQEQKAKKKQEAEENEITEKQQKAKEEMEKKESEQAKKEDKETSAKRGKEITGVKRQSKSEHETSDAKKSVEDRGKRCPTPEIQKKSTGDVPHTSVTGDSGSGKPFKIKGQPESGILRTGTFREDTDDTERNKAQREPLTRARSEEMGRIVPGLPSGWAKFLDPITGTFRYYHSPTNTVHMYPPEMAPSSAPPSTPPTHKAKPQIPAERDREPSKLKRSYSSPDITQAIQEEEKRKPTVTPTVNRENKPTCYPKAEISRLSASQIRNLNPVFGGSGPALTGLRNLGNTCYMNSILQCLCNAPHLADYFNRNCYQDDINRSNLLGHKGEVAEEFGIIMKALWTGQYRYISPKDFKITIGKINDQFAGYSQQDSQELLLFLMDGLHEDLNKADNRKRYKEENNDHLDDFKAAEHAWQKHKQLNESIIVALFQGQFKSTVQCLTCHKKSRTFEAFMYLSLPLASTSKCTLQDCLRLFSKEEKLTDNNRFYCSHCRARRDSLKKIEIWKLPPVLLVHLKRFSYDGRWKQKLQTSVDFPLENLDLSQYVIGPKNNLKKYNLFSVSNHYGGLDGGHYTAYCKNAARQRWFKFDDHEVSDISVSSVKSSAAYILFYTSLGPRVTDVAT
modifications: phosphorylated in the 14-3-3-binding motif
On to B1, for which, in the experiment with GST-tagged 14-3-3, the binding result is recorded as “binds”.

Source of the values: article PMC8576004.
